In paper PMC4181878:
No constants are given. Whether binding was seen depends on the method and setting. Binding seen in cells or lysates may run through a third protein. Some results given as binding are weak or reduced against the parent protein; the word gives no strength. For part of these data: Tags and fused reporters may be left off the sequences shown.

Protein sequences, listed by entry. Tags and fused reporters are not part of them.
UniProt P04608: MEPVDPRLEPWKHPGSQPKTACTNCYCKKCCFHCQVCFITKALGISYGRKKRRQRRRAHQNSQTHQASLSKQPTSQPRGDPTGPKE

B1: V5-tagged NUCKS1 (protein, UniProt Q9H1E3-1 1-243)
chain: MSRPVRNRKVVDYSQFQESDDADEDYGRDSGPPTKKIRSSPREAKNKRRSGKNSQEDSEDSEDKDVKTKKDDSHSAEDSEDEKEDHKNVRQQRQAASKAASKQREMLMEDVGSEEEQEEEDEAPFQEKDSGSDEDFLMEDDDDSDYGSSKKKNKKMVKKSKPERKEKKMPKPRLKATVTPSPVKGKGKVGRPTASKASKEKTPSPKEEDEEPESPPEKKTSTSPPPEKSGDEGSEDEAPSGED
B2: endogenous NUCKS1 (protein, UniProt Q9H1E3 1-243)
chain: B1 chain

How the values were obtained:
[1] = target: Flag-tagged HIV-1 Tat (HXB2 strain) (HIV-1 (HXB2 strain)) (UniProt P04608); experiment: co-IP; HeLa cells transfected with Flag–Tat, V5–NUCKS1, or both, two days; IP with anti-Flag antibody, blot with anti-Cyclin T1 and anti-Flag
[2] = target: Flag-tagged HIV-1 Tat (HXB2 strain) (HIV-1 (HXB2 strain)) (UniProt P04608); experiment: co-IP; HEK293 cells cotransfected with Flag-tagged HIV-1 protein and V5–NUCKS1, 48 h; lysis in 250 mM NaCl, 0.5% NP-40, 50 mM Tris-HCl pH 7.5, 5 mM EDTA; IP with anti-Flag M2 at 4°C, blot with anti-V5
[3] = target: Flag-tagged HIV-1 Tat (HXB2 strain) (HIV-1 (HXB2 strain)) (UniProt P04608); experiment: co-IP; lysate of Flag–Tat-expressing HEK293 (HEK293T in the legend) cells; IP with anti-Flag or anti-Pol II antibody, blot with anti-NUCKS1 or anti-Flag; endogenous NUCKS1

Binder	binding [1]	binding [2]	binding [3]
B1	binds	binds	
B2			binds
